Reference: PubChem BioAssay AID1347076 (National Center for Advancing Translational Sciences (NCATS), 2019)
About 13,000 (3.2%) of roughly 400,000 compounds were called active. The shares of active, inactive and inconclusive entries below differ from those in the screen. Calls come from the whole dose curve; as a rule, active = well fitted cell-killing curve with a large enough effect; inconclusive = small, poorly fitted or top-dose-only effect, or effect the other way; inactive = flat fitted curve, though single readings scatter. A potency beside an inconclusive call is a rough fit, not a confirmed value.
% is set by controls: 0 for no effect and ±100 for the full control effect; potency is the fitted concentration of half-maximal effect.

Test: qHTS assay for MDR1-selective chemotherapeutics: Primary screen using the drug-selected MDR subline cells KB-V1; note: nearly all actives have a fitted effect of over 60% in size
Details: KB-V1 MDR cells viability, CellTiter-Glo, 72 h; activity change, negative = cytotoxicity: at 46.1 µM (top of the series)
Summary of the method: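 Cytotoxicity via CellTiter-Glo luminescence after 72 h compound exposure at 37 degrees C. Cells: drug-selected KB-V1 line, DMEM phenol-red free plus 10% FBS. Compounds tested at multiple concentrations; normalized data fitted to concentration-effect curves.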
For `COc1cccc(NC(=O)CN(C)C(=O)CSc2nc3ccccc3s2)c1`, the Potency was inconclusive: 14.6 µM [cytotoxic, partial curve, poor fit].
For `CS(=O)(=O)N(CC(=O)Nc1ccccc1)Cc1ccc(Cl)cc1`, the “activity change, negative = cytotoxicity” value was inactive: -20.2%.
In the case of `Cc1ccc2c(=O)cc(C(=O)Nc3ccc(S(=O)(=O)N(C)c4ccccc4)cc3)oc2c1C`, the Potency is reported as inconclusive: 29.1 µM [rising, single point].
With `CCOC(=O)c1c(NC(=O)C2CCCN(S(=O)(=O)c3ccc(C)cc3)C2)sc2c1CCCC2` (stereo unspecified) the Potency was inconclusive: 23.1 µM [cytotoxic, single point].
For `C[C@@H]1CC=C[C@H]2[C@H]1C(=O)N(Cc1ccccc1)[C@H]2c1ccc2ccccc2c1Br`, the Potency was inconclusive: 29.1 µM [cytotoxic, single point].
In the case of `O=C(CCCOc1ccccc1)N1CCN(S(=O)(=O)c2ccc(Cl)cc2)CC1`, the “activity change, negative = cytotoxicity” value is reported as inactive: 0%.
For `CSc1ccc(NC(=O)C2(C)CCN2C(=O)Cc2ccc(C(C)(C)C)cc2)cc1` (stereo unspecified), the Potency was active: 16.4 µM.
In the case of `Cc1nn(-c2ccccc2)nc1CNC(=O)CC(C)(C)C`, the “activity change, negative = cytotoxicity” value is reported as inactive: -21.6%.
With `O=C(c1ccccc1)c1ccc(N2CCCC2)cc1` the Potency was inconclusive: 32.6 µM [cytotoxic, single point].
In the case of `CCCn1c(NC(=O)c2ccccc2)nc2ccccc21`, the Potency is reported as active: 14.6 µM.
With `COc1cccc(-c2nc(CS(=O)(=O)CC(=O)NCCCOC(C)C)c(C)o2)c1` the Potency was inconclusive: 16.4 µM [cytotoxic, partial curve, poor fit].
With `CCn1cc(CN2CCC(n3nccc3NC(=O)CCOc3ccccc3)CC2)c(C)n1` the Potency was inconclusive: 14.6 µM [rising, single point].
For `Cc1ccc(/C=N/NC(=O)CSc2nc3ccccc3n2C)s1`, the Potency was active: 14.6 µM.
For `O=C(CSc1nncs1)Nc1ccc(N2CCCCC2)cc1`, the Potency was active: 16.4 µM.
In the case of `Cc1ccc(S(=O)(=O)NCC2CCC(C(=O)NCCc3ccccc3)CC2)cc1` (stereo unspecified), the “activity change, negative = cytotoxicity” value is reported as inactive: 7.1%.
With `CCN(CC)CCN1C(=O)c2cccc3cc(N)cc(c23)C1=O` the Potency was inconclusive: 25.9 µM [cytotoxic, partial curve, poor fit].
In the case of `CN(Cc1ccccc1)C(CNS(=O)(=O)c1ccccc1)c1ccccc1` (stereo unspecified), the “activity change, negative = cytotoxicity” value is reported as inactive: -21.7%.
For `CCOc1ccc(-c2c[n+]3c(n2-c2ccccc2)CCCCC3)cc1`, the Potency was inconclusive: 29.1 µM [rising, partial curve, poor fit].
For `O=C(c1ccc(N2C(=O)CCC2=O)cc1)N1CCCSC1=Nc1ccccc1`, the “activity change, negative = cytotoxicity” value was inactive: -0.768%.
With `CC(=O)OCCCNc1cc(Sc2ccc(C)cc2)c2nonc2c1[N+](=O)[O-]` the “activity change, negative = cytotoxicity” value was inactive: 5.35%.
In the case of `CCN(CC)CC(=O)Nc1ccc(-c2nc3cc(NC(=O)CN(CC)CC)ccc3o2)cc1`, the Potency is reported as active: 18.4 µM.
